According to the supplement of paper PMC10849652:
The list shows a part of the results.

Sequences of proteins named here, by UniProt entry; tags and fusion partners are left off. A change or cut given only in a name is not applied to a line headed by its entry.
UniProt P54577: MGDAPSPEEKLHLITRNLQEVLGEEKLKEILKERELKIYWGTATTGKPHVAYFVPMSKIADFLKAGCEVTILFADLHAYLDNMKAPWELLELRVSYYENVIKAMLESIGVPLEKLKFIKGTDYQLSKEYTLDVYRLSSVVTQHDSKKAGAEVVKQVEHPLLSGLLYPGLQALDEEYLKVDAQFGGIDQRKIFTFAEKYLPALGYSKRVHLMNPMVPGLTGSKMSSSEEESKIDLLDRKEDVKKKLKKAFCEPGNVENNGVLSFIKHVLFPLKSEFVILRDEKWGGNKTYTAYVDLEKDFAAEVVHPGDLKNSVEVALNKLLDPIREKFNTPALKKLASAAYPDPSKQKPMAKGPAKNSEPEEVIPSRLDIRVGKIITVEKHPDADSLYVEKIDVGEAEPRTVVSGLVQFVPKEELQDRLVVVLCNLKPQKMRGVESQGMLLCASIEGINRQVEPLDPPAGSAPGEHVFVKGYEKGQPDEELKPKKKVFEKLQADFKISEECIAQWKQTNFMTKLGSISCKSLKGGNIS
UniProt O95159: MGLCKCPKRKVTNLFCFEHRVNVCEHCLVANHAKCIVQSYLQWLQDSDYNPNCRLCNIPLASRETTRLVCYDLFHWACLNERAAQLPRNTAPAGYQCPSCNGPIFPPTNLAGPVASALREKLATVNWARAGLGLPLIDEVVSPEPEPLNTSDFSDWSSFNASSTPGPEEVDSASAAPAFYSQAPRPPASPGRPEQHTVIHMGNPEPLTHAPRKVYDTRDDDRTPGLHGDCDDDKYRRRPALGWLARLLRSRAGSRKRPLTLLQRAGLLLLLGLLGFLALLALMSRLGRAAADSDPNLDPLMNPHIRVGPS
UniProt Q7Z2W4: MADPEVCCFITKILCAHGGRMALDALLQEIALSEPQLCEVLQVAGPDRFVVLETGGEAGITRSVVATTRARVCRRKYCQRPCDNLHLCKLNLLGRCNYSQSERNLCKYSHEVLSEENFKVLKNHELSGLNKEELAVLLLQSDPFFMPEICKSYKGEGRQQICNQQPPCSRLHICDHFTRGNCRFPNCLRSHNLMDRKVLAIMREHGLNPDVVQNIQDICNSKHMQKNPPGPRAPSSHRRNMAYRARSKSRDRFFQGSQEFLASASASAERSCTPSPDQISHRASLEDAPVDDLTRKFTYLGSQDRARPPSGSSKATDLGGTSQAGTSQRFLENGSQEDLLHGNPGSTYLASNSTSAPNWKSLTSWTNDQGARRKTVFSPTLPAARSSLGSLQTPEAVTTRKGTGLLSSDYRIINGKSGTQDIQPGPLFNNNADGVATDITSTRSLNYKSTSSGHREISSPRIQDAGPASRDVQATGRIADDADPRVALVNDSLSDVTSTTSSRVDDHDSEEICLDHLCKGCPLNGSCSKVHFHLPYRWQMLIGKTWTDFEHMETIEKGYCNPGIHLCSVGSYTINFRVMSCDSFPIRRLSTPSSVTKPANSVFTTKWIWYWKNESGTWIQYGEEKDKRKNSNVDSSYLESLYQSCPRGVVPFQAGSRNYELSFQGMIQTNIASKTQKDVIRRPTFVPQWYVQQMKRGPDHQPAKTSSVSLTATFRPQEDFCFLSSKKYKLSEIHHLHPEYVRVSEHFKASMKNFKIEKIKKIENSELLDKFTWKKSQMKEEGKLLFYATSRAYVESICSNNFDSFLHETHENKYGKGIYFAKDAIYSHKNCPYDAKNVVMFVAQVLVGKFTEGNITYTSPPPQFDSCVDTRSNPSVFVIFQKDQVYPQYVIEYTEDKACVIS
UniProt P67809, whole entry, looked up: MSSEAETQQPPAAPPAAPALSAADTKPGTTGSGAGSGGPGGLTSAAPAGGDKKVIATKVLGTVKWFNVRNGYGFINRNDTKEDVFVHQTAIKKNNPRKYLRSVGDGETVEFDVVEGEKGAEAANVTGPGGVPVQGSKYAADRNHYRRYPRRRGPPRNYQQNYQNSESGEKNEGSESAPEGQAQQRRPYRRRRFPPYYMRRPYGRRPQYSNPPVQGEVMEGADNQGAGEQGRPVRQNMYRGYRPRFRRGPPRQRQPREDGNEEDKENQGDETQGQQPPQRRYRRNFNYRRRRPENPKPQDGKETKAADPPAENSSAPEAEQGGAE
UniProt Q9ULJ3: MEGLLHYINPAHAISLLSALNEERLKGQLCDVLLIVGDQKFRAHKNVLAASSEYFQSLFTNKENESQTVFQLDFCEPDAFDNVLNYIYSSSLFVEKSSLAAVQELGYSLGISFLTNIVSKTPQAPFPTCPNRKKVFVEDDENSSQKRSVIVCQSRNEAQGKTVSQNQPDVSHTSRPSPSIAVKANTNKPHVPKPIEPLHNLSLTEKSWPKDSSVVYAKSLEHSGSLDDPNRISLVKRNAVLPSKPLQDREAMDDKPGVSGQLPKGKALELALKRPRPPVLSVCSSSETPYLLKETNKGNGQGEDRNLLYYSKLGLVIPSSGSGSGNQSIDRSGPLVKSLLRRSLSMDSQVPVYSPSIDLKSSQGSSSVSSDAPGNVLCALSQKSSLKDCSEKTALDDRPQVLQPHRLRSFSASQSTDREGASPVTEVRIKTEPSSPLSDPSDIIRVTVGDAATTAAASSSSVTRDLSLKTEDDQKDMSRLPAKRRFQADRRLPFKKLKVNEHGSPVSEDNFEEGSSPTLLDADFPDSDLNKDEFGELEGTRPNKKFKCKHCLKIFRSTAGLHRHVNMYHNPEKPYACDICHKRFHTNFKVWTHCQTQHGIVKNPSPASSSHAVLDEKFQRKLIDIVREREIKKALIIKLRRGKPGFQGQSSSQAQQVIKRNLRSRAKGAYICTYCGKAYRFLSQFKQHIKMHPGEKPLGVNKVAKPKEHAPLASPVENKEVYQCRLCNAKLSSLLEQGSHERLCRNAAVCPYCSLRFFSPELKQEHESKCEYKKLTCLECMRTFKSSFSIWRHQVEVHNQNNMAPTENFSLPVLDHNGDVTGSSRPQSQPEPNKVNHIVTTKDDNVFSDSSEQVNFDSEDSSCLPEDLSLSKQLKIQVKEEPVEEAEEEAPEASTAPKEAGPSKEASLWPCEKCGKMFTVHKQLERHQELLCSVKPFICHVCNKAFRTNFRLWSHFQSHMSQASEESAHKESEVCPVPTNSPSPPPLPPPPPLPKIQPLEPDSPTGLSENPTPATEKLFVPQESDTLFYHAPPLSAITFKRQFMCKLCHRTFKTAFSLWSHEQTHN
UniProt O75191: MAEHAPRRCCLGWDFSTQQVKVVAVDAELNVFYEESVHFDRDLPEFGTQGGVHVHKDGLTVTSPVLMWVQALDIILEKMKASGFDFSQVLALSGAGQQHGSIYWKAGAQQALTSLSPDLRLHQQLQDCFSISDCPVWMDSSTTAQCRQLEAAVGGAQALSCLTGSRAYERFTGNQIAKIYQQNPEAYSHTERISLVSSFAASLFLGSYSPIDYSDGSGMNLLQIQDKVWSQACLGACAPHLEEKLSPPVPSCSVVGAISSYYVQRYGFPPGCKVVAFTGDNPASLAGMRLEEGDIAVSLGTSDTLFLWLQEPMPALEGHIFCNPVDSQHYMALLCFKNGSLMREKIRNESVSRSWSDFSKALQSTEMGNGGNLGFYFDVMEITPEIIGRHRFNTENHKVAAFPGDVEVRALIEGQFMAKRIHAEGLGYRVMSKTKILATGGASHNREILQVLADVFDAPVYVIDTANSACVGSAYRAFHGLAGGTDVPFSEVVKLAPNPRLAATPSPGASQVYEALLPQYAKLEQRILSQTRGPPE
UniProt Q9BYJ9: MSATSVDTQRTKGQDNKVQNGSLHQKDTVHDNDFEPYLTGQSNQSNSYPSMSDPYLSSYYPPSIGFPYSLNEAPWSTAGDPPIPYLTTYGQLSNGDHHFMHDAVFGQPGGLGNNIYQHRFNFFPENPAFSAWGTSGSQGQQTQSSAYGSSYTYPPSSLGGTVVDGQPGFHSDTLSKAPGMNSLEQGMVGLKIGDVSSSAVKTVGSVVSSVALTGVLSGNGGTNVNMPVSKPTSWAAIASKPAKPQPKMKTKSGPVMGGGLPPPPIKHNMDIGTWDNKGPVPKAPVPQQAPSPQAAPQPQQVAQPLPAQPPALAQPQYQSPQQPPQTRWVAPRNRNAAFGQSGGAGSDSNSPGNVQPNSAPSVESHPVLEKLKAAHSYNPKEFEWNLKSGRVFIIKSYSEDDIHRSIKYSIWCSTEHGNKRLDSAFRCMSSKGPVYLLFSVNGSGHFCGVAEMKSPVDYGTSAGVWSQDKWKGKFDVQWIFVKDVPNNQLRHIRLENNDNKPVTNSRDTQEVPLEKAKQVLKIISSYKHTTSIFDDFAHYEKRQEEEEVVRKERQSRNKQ
UniProt Q5BJH7: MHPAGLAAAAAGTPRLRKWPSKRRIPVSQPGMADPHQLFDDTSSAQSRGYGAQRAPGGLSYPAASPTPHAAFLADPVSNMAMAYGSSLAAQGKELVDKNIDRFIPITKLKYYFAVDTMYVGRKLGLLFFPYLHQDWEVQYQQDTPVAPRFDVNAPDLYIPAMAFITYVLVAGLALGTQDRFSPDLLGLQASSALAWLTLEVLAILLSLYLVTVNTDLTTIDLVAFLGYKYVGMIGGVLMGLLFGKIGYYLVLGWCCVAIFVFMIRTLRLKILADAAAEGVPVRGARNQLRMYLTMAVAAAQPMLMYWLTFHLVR
UniProt O60293: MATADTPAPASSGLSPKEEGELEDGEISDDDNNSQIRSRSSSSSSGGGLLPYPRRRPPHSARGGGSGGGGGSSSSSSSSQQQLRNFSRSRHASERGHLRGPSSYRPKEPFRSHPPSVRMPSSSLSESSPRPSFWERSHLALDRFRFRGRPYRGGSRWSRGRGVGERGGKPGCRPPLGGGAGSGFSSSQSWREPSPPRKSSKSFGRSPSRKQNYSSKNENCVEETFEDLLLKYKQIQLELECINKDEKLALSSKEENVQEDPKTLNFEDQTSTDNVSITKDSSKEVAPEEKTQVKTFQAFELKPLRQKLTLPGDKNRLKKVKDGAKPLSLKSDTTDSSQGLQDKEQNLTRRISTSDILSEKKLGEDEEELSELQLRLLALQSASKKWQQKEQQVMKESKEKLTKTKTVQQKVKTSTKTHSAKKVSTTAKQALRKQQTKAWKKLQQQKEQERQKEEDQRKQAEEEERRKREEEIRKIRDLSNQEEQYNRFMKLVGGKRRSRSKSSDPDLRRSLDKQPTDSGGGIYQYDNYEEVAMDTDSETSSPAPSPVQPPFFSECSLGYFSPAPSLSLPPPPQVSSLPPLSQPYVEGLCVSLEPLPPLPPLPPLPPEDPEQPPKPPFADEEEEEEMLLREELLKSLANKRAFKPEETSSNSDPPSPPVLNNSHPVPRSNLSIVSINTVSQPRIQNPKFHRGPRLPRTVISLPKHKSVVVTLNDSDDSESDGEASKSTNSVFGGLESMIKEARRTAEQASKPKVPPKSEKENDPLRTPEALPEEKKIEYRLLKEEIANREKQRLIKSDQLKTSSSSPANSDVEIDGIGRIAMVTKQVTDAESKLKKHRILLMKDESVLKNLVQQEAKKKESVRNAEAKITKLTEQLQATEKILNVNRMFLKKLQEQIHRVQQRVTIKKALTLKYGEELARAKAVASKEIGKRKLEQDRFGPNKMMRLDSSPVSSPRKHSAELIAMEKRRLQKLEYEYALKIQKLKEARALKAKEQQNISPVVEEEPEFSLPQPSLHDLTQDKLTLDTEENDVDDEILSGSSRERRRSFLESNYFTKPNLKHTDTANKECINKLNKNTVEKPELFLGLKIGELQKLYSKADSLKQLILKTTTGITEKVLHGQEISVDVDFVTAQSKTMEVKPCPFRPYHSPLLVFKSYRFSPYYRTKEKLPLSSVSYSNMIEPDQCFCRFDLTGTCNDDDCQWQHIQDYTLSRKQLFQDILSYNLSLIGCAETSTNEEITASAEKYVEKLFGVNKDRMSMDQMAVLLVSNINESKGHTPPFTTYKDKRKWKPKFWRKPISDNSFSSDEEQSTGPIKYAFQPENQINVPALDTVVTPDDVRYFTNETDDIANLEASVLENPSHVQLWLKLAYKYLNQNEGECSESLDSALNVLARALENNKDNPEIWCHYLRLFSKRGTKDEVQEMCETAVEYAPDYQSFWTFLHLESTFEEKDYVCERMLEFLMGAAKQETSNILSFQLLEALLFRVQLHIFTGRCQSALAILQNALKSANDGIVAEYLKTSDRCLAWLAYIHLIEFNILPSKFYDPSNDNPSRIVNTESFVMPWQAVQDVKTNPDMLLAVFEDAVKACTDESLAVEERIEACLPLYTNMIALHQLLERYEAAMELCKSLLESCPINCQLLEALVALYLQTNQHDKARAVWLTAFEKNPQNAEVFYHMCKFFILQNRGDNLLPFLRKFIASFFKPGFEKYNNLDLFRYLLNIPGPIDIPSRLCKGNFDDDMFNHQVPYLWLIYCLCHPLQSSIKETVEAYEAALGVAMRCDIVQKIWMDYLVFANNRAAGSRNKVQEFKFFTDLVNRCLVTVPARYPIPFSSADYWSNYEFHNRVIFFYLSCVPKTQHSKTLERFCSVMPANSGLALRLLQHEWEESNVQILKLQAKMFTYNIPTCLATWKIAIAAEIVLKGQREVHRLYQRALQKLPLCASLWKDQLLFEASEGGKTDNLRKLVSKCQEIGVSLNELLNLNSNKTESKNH

Compound: CC1=C(C(CC(=O)N1)C2=CC=C(C=C2)C(F)(F)F)C(=O)NC3=C(C=C4C(=C3)C=NN4)F
Experiment: log2 fold change, soluble protein after heating vs DMSO (PISA); higher = thermal stabilisation; K562 lysate, 10 uM; active = over 0.2 and 3.5 SD of the protein, either way, in both replicates (recomputed)
In short: (§1)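 Quantification was by TMTpro 16plex LC-MS/MS with equalised channel sums, applied to the supernatant after 21,000xg for 90 min. Samples were crude K562 extract at 1 mg/mL protein in PBS pH 7.4 with 1 mM MgCl2, treated with 10 μM compound for 30 min, heated for 3 min across 48°C-58°C, pooled and brought to 0.5% NP-40 at 4°C. Values are log-two fold changes in thermal stability relative to solvent controls, from duplicates.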

| Target | log2 fold change |
| --- | --- |
| XPO7 (UniProt Q9UIA9) | inactive: -0.002 |
| ZBTB33 (UniProt Q86T24) | inactive: -0.027 |
| XPO6 (UniProt Q96QU8) | inactive: -0.003 |
| YRDC (UniProt Q86U90) | inactive: -0.006 |
| YARS (UniProt P54577) | inactive: -0.013 |
| ZFPL1 (UniProt O95159) | inactive: 0.033 |
| ZC3HAV1 (UniProt Q7Z2W4) | inactive: 0.027 |
| YBX1 (UniProt P67809) | inactive: -0.008 |
| ZBTB21 (UniProt Q9ULJ3) | inactive: 0.014 |
| XYLB (UniProt O75191) | inactive: 0.058 |
| YTHDF1 (UniProt Q9BYJ9) | inactive: 0.001 |
| YIF1B (UniProt Q5BJH7) | inactive: 0.022 |
| ZFC3H1 (UniProt O60293) | inactive: -0.002 |
| XXYLT1 (UniProt Q8NBI6) | inactive: 0.014 |

Compound: CC1=C(C2=C(C=C1)C(=O)C3=CC=CC=C3N2CCCN)C
Experiment: as above
In short: as §1

| Target | log2 fold change |
| --- | --- |
| XRCC5 (UniProt P13010) | inactive: 0.062 |
| ZC3H7B (UniProt Q9UGR2) | inactive: 0 |
| YLPM1 (UniProt P49750) | inactive: -0.031 |
| ZFAND6 (UniProt Q6FIF0) | inactive: 0.014 |
| ZGPAT (UniProt Q8N5A5) | inactive: 0.019 |
| ZC3H13 (UniProt Q5T200) | inactive: 0.046 |
| YES1 (UniProt P07947) | inactive: 0.044 |
| YOD1 (UniProt Q5VVQ6) | inactive: -0.006 |
| YDJC (UniProt A8MPS7) | inactive: -0.034 |
| ZDHHC18 (UniProt Q9NUE0) | inactive: 0.209 |
| ZBTB14 (UniProt O43829) | inactive: -0.007 |
| XRN1 (UniProt Q8IZH2) | inactive: 0.036 |
| ZEB2 (UniProt O60315) | inactive: 0.058 |
| XPR1 (UniProt Q9UBH6) | inactive: 0.096 |
| YJU2 (UniProt Q9BW85) | inactive: 0.026 |
| YME1L1 (UniProt Q96TA2) | inactive: 0.003 |
| YPEL5 (UniProt P62699) | inactive: 0.009 |
| ZC3H18 (UniProt E7ERS3) | inactive: -0.022 |
| ZFYVE16 (UniProt Q7Z3T8) | inactive: 0.003 |

| Target | log2 fold change |
| --- | --- |
| ZFAND5 (UniProt O76080) | inactive: -0.058 |
| ZER1 (UniProt Q7Z7L7) | inactive: -0.036 |
| ZC2HC1A (UniProt Q96GY0) | inactive: -0.076 |
| YTHDF2 (UniProt Q9Y5A9) | inactive: 0.066 |
| YARS2 (UniProt Q9Y2Z4) | inactive: -0.02 |
| XPO7 (UniProt Q9UIA9) | inactive: 0.002 |
| ZBTB33 (UniProt Q86T24) | inactive: 0.109 |
| XPO6 (UniProt Q96QU8) | inactive: -0.024 |
| YRDC (UniProt Q86U90) | inactive: -0.015 |
| YARS (UniProt P54577) | inactive: 0.022 |
| ZFPL1 (UniProt O95159) | inactive: 0.028 |
| ZC3HAV1 (UniProt Q7Z2W4) | inactive: -0.002 |
| YBX1 (UniProt P67809) | inactive: -0.023 |
| ZBTB21 (UniProt Q9ULJ3) | inactive: -0.076 |
| XYLB (UniProt O75191) | inactive: -0.042 |
| YTHDF1 (UniProt Q9BYJ9) | inactive: -0.054 |
| YIF1B (UniProt Q5BJH7) | inactive: 0.055 |
| ZFC3H1 (UniProt O60293) | inactive: -0.002 |
| XXYLT1 (UniProt Q8NBI6) | inactive: -0.065 |

Compound: CC1=C(C=C(C=C1)NC(=O)C2=CC(=CC=C2)C(C)(C)C#N)NC3=CC4=C(C=C3)N=CN(C4=O)C
Experiment: as above
In short: as §1

| Target | log2 fold change |
| --- | --- |
| XRCC5 (UniProt P13010) | inactive: -0.026 |
| ZC3H7B (UniProt Q9UGR2) | inactive: -0.044 |
| YLPM1 (UniProt P49750) | inactive: -0.017 |
| ZFAND6 (UniProt Q6FIF0) | inactive: 0.1 |
| ZGPAT (UniProt Q8N5A5) | inactive: 0.02 |
| ZC3H13 (UniProt Q5T200) | inactive: 0.08 |
| YES1 (UniProt P07947) | inactive: 0.192 |
| YOD1 (UniProt Q5VVQ6) | inactive: 0.002 |
| YDJC (UniProt A8MPS7) | inactive: 0.011 |
| ZDHHC18 (UniProt Q9NUE0) | inactive: -0.022 |
| ZBTB14 (UniProt O43829) | inactive: 0.192 |
| XRN1 (UniProt Q8IZH2) | inactive: -0.049 |
| ZEB2 (UniProt O60315) | inactive: -0.032 |
| XPR1 (UniProt Q9UBH6) | inactive: -0.016 |
| YJU2 (UniProt Q9BW85) | inactive: -0.039 |
| YME1L1 (UniProt Q96TA2) | inactive: 0.005 |
| YPEL5 (UniProt P62699) | inactive: 0.031 |
| ZC3H18 (UniProt E7ERS3) | inactive: 0.055 |
| ZFYVE16 (UniProt Q7Z3T8) | inactive: 0.011 |

| Target | log2 fold change |
| --- | --- |
| ZFAND5 (UniProt O76080) | inactive: 0.142 |
| ZER1 (UniProt Q7Z7L7) | inactive: 0.02 |
| ZC2HC1A (UniProt Q96GY0) | inactive: 0.045 |
| YTHDF2 (UniProt Q9Y5A9) | inactive: -0.185 |
| YARS2 (UniProt Q9Y2Z4) | inactive: -0.036 |
| XPO7 (UniProt Q9UIA9) | inactive: 0.021 |
| ZBTB33 (UniProt Q86T24) | inactive: 0.129 |
| XPO6 (UniProt Q96QU8) | inactive: 0.028 |
| YRDC (UniProt Q86U90) | inactive: 0.021 |
| YARS (UniProt P54577) | inactive: -0.006 |
| ZFPL1 (UniProt O95159) | inactive: 0.066 |
| ZC3HAV1 (UniProt Q7Z2W4) | inactive: 0.022 |
| YBX1 (UniProt P67809) | inactive: 0.002 |
| ZBTB21 (UniProt Q9ULJ3) | inactive: -0.049 |
| XYLB (UniProt O75191) | inactive: 0.051 |
| YTHDF1 (UniProt Q9BYJ9) | inactive: -0.249 |
| YIF1B (UniProt Q5BJH7) | inactive: 0.036 |
| ZFC3H1 (UniProt O60293) | inactive: -0.034 |
| XXYLT1 (UniProt Q8NBI6) | inactive: 0.037 |
